Out of some 220,000 compounds screened, about 2,400 (1.1%) were called active. Inconclusive means that the source gave no clear call. Such entries were picked first, then a sample of the others. The call rests on the fitted dose curve; in most records, active means well fitted inhibition curve with a large enough effect; inconclusive means small, poorly fitted or top-dose-only effect, or effect the other way; inactive means no such curve, though single readings can be large or run the other way. Potencies beside an inconclusive call are fits to weak or partial responses and may not hold up.
Experiment: qHTS Multiplex Assay to Identify Dual Action Probes in a Cell Model of Huntington: Aggregate Formation (GFP); further: nearly all actives have a fitted effect of over 60% in size
Conditions: PC12 HttQ103-GFP aggregates, Acumen cytometry, 40 h; activity change, negative = inhibition: at 46.1 µM (top of the series) unless noted
How it was run: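 PC12 cells with ecdysone-inducible HTT exon1 Q103-GFP, induced by 100 nM tebufenozide, given compounds in a concentration series. GFP aggregates (1–25 um, 6 SD above background) counted in lysates by laser-scanning cytometry, 488 nm excitation.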
On the % scale 0 is the no-effect control and ±100 the full control effect; potency means the concentration at half of the fitted maximal effect.

Structure (SMILES) | activity change, negative = inhibition | Potency
O=C1NCCC/C1=N/Nc1ccc(F)cc1 | inactive: 3.89% | –
CCN(c1ccccc1)S(=O)(=O)c1ccc(C(=O)Nc2nnc(-c3ccco3)o2)cc1 | – | inconclusive: 22.4 µM [inhibitor, single point]
c1cnc(SCCCOc2ccc3ccccc3c2)nc1 | – | inconclusive: 35.5 µM [inhibitor, single point]
COc1cc(/C=N/NC(=O)c2csc3c2CCCC3)cc(OC)c1O | – | inconclusive: 3.98 µM [activator, single point]
CN1/C(=C\C=N\NC(=O)c2cccnc2)C(C)(C)c2ccccc21 | – | active: 6.31 µM
CC1=CC(C)(C)Nc2ccc(OC(=O)CCN3C(=O)c4ccccc4C3=O)cc21 | inactive: -3.94% [at 1.84 µM] | –
Cc1ccc(C)c(OCCCNC2CCCC2)c1C | – | inconclusive: 35.5 µM [inhibitor, single point]
CCOC(=O)c1cc2cc(OC)ccc2[nH]1 | – | inconclusive: 35.5 µM [inhibitor, single point]
COc1ccc(NC(=O)c2ccccc2[N+](=O)[O-])cc1OC | – | inconclusive: 0.398 µM [inhibitor, partial curve]
COC(=O)c1ccc(Cl)c(NC(=O)CN(c2ccccc2)S(=O)(=O)c2ccc(OC)cc2)c1 | – | inconclusive: 2.82 µM [inhibitor, single point]
Cc1ccc(-c2noc(CSc3nc(N)cc(N)n3)n2)cc1 | – | inconclusive: 17.8 µM [inhibitor, single point]
CC(C)c1nnc(NC(=O)C2CCCO2)s1 (centres undefined) | – | inconclusive: 5.01 µM [activator, single point]
CC(C)c1nc(SCC(=O)Nc2cccc(C(F)(F)F)c2)c2c(=O)n(C)c(=O)n(C)c2n1 | – | inconclusive: 14.1 µM [inhibitor, partial curve]
CC(C)(C)c1ccc(C(=O)NNC(=O)Cc2cccc3ccccc23)cc1 | inactive: 25.7% [at 9.22 µM] | –
CCOC(=O)COc1ccc(S(=O)(=O)N2CCN(c3ccccc3)CC2)cc1 | inactive: 13.6% | –
CCN(CC)C(=O)c1sc2nc(-c3cccs3)cc(-c3cccs3)c2c1N | inactive: 5.96% [at 9.22 µM] | –
CN1C/C(=C/c2ccsc2)C(=O)/C(=C/c2ccsc2)C1 | – | inconclusive: 35.5 µM [activator, single point]
O=C(NCc1cccs1)c1ccc(N2CCCCC2)nc1 | inactive: -3.2% | –
O=C(NC1CCCCCCC1)C1CCN(c2nc3ccccc3o2)CC1 | – | inconclusive: 8.91 µM [inhibitor, partial curve]
CCCSc1nc(N2CCCC2)c2c(c1C#N)CC(C)(C)OC2 | – | inconclusive: 11.2 µM [inhibitor, single point]
O=C(O)CCCC(=O)Nc1cccc2cccnc12 | – | inconclusive: 17.8 µM [inhibitor, single point]
CCC(=O)c1ccc(OCCSc2ncccn2)cc1 | inactive: -20.1% | –

Structure (SMILES) | activity change, negative = inhibition | Potency
Cc1ccc(S(=O)(=O)N(C)C)cc1NC(=S)Nc1ccc2cn[nH]c2c1 | – | inconclusive: 31.6 µM [inhibitor, single point]
CC(=O)c1c(O)cc(C)n(Nc2nc(C)cc(C)n2)c1=O | – | active: 1.26 µM
CCc1ccc(-c2nc(CSCC(=O)N3CCN(c4ccccn4)CC3)c(C)o2)cc1 | – | inconclusive: 25.1 µM [inhibitor, single point]
Cc1cc(C)c(-c2csc(NC(=O)/C=C/c3cccs3)n2)c(C)c1 | – | inconclusive: 7.08 µM [inhibitor, partial curve]
Cc1cccc(Cn2ncc(Cl)c(Cl)c2=O)c1 | – | inconclusive: 35.5 µM [inhibitor, single point]
O=C(Nc1ccc(Cc2ccncc2)cc1)C1CCC(N2C(=O)C3C4C=CC(C4)C3C2=O)CC1 (centres undefined) | – | inconclusive: 35.5 µM [inhibitor, single point]
CCOC(=O)C1=C(C)OC(N)=C(C#N)C1c1ccc(C)s1 (centres undefined) | inactive: -3.12% | –
CCc1c(C(=O)Nc2ccc(OC)c(Cl)c2)[nH]c(C)c1C(C)=O | – | inconclusive: 35.5 µM [inhibitor, single point]
O=C(Nc1ccc(Cl)cn1)c1cc(S(=O)(=O)N2CCCCC2)ccc1Cl | inactive: 6.95% | –
CCOC(=O)c1ccc(NC(=S)Nc2cc(C)cc(C)n2)cc1 | – | inconclusive: 3.55 µM [activator, single point]
N#Cc1ccsc1NC(=O)COC(=O)c1cc2ccccc2cc1O | – | inconclusive: 15.8 µM [inhibitor, single point]
O=C(COC(=O)c1ccc(=O)n(Cc2ccccc2)n1)Nc1ccc2c(c1)OCCO2 | – | inconclusive: 3.55 µM [inhibitor, single point]
COc1ccc(OC(=O)c2cccnc2)cc1 | inactive: -9.61% [at 1.84 µM] | –
COc1ccc(Cl)cc1C(=O)NNC(=O)CSc1nnc2ccccn12 | – | inconclusive: 35.5 µM [activator, partial curve, poor fit]
Cn1c(=O)[nH]c(=O)c2c1nc(N1CCCCCC1)n2Cc1cccc2ccccc12 | – | inconclusive: 35.5 µM [inhibitor, single point]
COc1ccc(/C=C/C(=O)OCC(=O)NCc2ccco2)cc1OC | – | inconclusive: 0.562 µM [inhibitor, partial curve, poor fit]
Cc1cccc(OCC(=O)Nc2ccc3c4c(cccc24)CC3)c1C | – | inconclusive: 22.4 µM [activator, partial curve]
Cc1cc2ccccc2n1CCNC(=O)C(C)Oc1ccccc1 (centres undefined) | – | inconclusive: 22.4 µM [inhibitor, single point]
COc1ccc(-n2nc3ccccc3n2)cc1 | – | inconclusive: 10 µM [inhibitor, partial curve]
COc1ccc(C(=O)NNC(=O)c2cc3cccc(OC)c3oc2=O)cc1 | inactive: -5.8% | –
CC(=O)Nc1ccc(C(=O)N/N=C/c2ccccc2OC(=O)c2ccc(Cl)cc2)cc1 | – | inconclusive: 15.8 µM [inhibitor, single point]
Clc1ccc(-c2nnc3cccc(Cl)n23)c(Cl)c1 | – | inconclusive: 35.5 µM [inhibitor, single point]

Part of the list above in another layout:
Structure (SMILES)	activity change, negative = inhibition	Potency
Cc1cc(C)c(-c2csc(NC(=O)/C=C/c3cccs3)n2)c(C)c1	–	inconclusive: 7.08 µM [inhibitor, partial curve]
Cc1cccc(Cn2ncc(Cl)c(Cl)c2=O)c1	–	inconclusive: 35.5 µM [inhibitor, single point]
O=C(Nc1ccc(Cc2ccncc2)cc1)C1CCC(N2C(=O)C3C4C=CC(C4)C3C2=O)CC1 (centres undefined)	–	inconclusive: 35.5 µM [inhibitor, single point]
